Experimental data: US20200131274A1
No constants are given. Whether binding was seen depends on the method and setting. Some results given as binding are weak or reduced against the parent protein; the word gives no strength.

Columns and labels:
[1] = target: cynomolgus PSMA, full-length, on CHO cells (cynomolgus); assay: FMAT Mirrorball direct cell binding, purified His-tagged VH titrated on CHO cells expressing cynomolgus PSMA, FL2 median binding signal [panel cynoPSMA-CHO binding]
[2] = target: cynomolgus PSMA, full-length, on CHO cells (cynomolgus); assay: FMAT direct binding on CHO cells expressing cynomolgus PSMA, purified VH kept 0-8 days at 40 °C before the assay, FL2 median mean fluorescence

| Binder | binding [1] | binding [2] |
| --- | --- | --- |
| single VH domain antibody 2.1 (VHH) VHH: EVQLVESGGGVVQPGRSLRLSCAASGFSFSGYGMHWVRQAPGKGLEWVAYISYDGSNKYYADSVKGRFTISRDNSKNTLYLQMNSLRAEDTAVYYCAKDPAWGLRLGESSSYDFDIWGQGTMVTVSS | binds | binds |
| single VH domain antibody 3.1 (VHH) VHH: EVQLVESGGGVVQPGRSLRLSCAASGFPLISYGMHWVRQAPGKGLEWVAFMTYDGSNRYYADSVKGRFTISRDNSKNTLYLQMNSLRDEDTALYYCARDRIVGGRVPDAFDIWGQGTMVTVSS | binds |  |
| 2.10 (VHH) VHH: EVQLVESGGGVVQPGRSLRLSCAASGFTFSGYGMHWVRQAPGKGLEWVAYISYDGSNRYYADSVKGRFTISRDNSKKTLSLQMNSLRAEDTAVYYCAKDPAWGLRLGESSSYDFDIWGQGTMVTVSS | binds |  |
